Binding data for three molecules are collected here from patent US20140120109A1.

Chains of the proteins cited; added tags and fusions are not shown. Lines headed by an entry give the natural chain unless they say otherwise; changes in a name come on top.
UniProt O95150: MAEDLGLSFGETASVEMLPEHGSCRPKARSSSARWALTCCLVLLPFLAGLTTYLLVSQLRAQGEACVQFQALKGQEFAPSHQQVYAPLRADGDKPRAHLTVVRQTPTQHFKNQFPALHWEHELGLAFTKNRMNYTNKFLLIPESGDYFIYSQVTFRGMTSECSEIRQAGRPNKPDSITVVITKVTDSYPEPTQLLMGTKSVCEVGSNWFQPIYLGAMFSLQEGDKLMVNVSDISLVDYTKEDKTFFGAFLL
UniProt Q8K3Y7: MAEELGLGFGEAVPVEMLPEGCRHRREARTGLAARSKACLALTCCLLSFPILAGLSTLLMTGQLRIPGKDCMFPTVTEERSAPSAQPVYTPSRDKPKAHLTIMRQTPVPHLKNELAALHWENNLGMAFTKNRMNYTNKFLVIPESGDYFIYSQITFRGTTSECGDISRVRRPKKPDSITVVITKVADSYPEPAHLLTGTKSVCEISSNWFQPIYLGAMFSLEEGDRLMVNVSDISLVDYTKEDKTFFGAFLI

The target of assay [1] is T1, cynomolgus monkey TL1A, soluble, CHO-expressed, residues 72-251 of SEQ ID NO:248 with N-terminal His6-tag (cynomolgus monkey (Macaca fascicularis)).
T1 sequence: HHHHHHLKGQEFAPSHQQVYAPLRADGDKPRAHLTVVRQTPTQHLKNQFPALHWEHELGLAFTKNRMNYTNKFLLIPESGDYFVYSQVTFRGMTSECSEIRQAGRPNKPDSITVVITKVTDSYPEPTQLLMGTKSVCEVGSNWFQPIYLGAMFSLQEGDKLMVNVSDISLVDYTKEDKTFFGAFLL
Briefly: SPR; SPR, statement in words, no number. Background: In SPR one partner is held on a chip, and binding of the other changes the refractive index at the surface.

Assay [2] has as its target human TL1A, soluble, CHO-expressed, residues 72-251 of SEQ ID NO:244 with N-terminal His6-tag (human) (UniProt O95150). In words: SPR.
The target in assay [3] is rat TL1A, soluble, CHO-expressed, residues 76-252 of SEQ ID NO:258 with N-terminal His6-tag (rat) (UniProt Q8K3Y7). Briefly: SPR.
Assay [4] addresses T1, cynomolgus monkey TL1A, soluble, CHO-expressed, residues 72-251 of SEQ ID NO:248 with N-terminal His6-tag (cynomolgus monkey (Macaca fascicularis)). Briefly: SPR.

These are yes or no findings as the source states them, for the method shown. Some entries that bind do so weakly or less than the wild type. For some of these results: Where a sequence is shown, tags or fusion partners need not be part of it.

B1: H4H1750P (antibody, human IgG4 S228P, V domains shown)
VH: QVQLVESGGGVVQPGRSLRLSCVASGFTFSNYGMHWVRQAPGKGLEWVAVISYDGNNDLYSDSVKGRFTISRDNAKNALSLQMTSLRAEDTAVYYCARDSTMTPYYYHGIDVWGQGTTVTVSA
VL: DIQMTQSPSSLSASVGDRVTITCRASQDIRNDLGWYQQKPGKAPKRLIYAASSLQSGVPSRFSGSGSGTDFTLTISSLQPEDFATYYCLQHNSYPPTFGQGTKVEIK
Turning to B1, the binding entry in assay [1] and in assay [2] was “binds” each time.

B2: H4H1719P (antibody, human IgG4 S228P, V domains shown)
VH: EVQLVESGGGLVQPGRSLRLSCVASGFTFQDYAMHWVRQAPGKGLEWVSGINWISDDMGYADSVMGRFTISRDNAKNSLYLQMDSLRAEDTALYYCAKDKGLRFLDYVMDVWGQGTTVTVSA
VL: DIVMTQSPLSLPVTPGEPASISCRSTQSLLHRNGHNYLHWYLHKPGQSPQLLIHLGSNRASGVPDRFSGSGSGTDFTLKISRVEAEDVGVYYCMQALQTPYTFGQGTKLEIK
For the molecule B2, the binding entry in assay [3], in assay [2] and in assay [4] was “binds” each time.

B3: H4H1738P (antibody, human IgG4 S228P, V domains shown)
VH: EVQLVESGGALVKPGGSLRLSCAVSGFTFINDWMNWVRQAPGKGLEWVGRIKSTTDGGTTDDAAPVKGRFTISRDDSKNTLYLQMNSLKTEDTAVYYCTRDRNRQRNYFYDGMDVWGQGTTVTVSA
VL: DIVMTQSPVSLPVTPGEPASISCRSSQRLLHNNGNNYLDWYLQKPGQSPQLLIYLGSNRASGVPDRFSGSGSGTDFTLKVSRVEAEDVGVYYCMQALQTPYTFGQGTKLEIK
For the molecule B3, the binding entry in assay [2] and in assay [4] was “binds” each time.
